PubChem BioAssay AID1508588 | Peter MacCallum Cancer Centre, 2020

Purpose: 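Knock-downs boosting vemurafenib effects on melanoma cell growth or lactate release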 (primary screen)
System: human WM266.4 melanoma cells (BRAF V600 mutant)
Knock-down reagent: siRNA pool against human genes, 40 nM
Time to read-out: 96 h from transfection to read-out
Treatment: vemurafenib 300 nM (about IC25), added 48 h after transfection, for 48 h; comparison arm got DMSO vehicle only
Measured: 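Cell gain (DAPI nuclei at end minus before drug, mean of two replicates) and medium lactate by absorbance per cell, both as ratio to non-targeting siRNA, also grouped into fold-change classes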
Direction: cell gain with vemurafenib: higher = more cell gain than with non-targeting siRNA; lactate per cell with vemurafenib: higher = more lactate made per cell
Active means: 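Enhancement is called by pairing each knock-down's vehicle-arm and drug-arm fold-change classes for viability or glycolysis; which class combinations qualify is not given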
Calls: active = enhances vemurafenib effect; inactive = no enhancement seen
In all, the deposit lists about 18,000 reagents; shown is an unselected part. Of all reagents, 790 (4.4%) were called active. 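Calls rest on a combination of fold-change classes in drug and vehicle arms, not all shown here.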 A number with no mark means an inactive call.

The first 5 records, to show the layout:
NR5A2
- cell gain with vemurafenib: 0.3
- lactate per cell with vemurafenib: 1.25

POPDC2
- cell gain with vemurafenib: 0.89
- lactate per cell with vemurafenib: 0.82

MRPL40
- cell gain with vemurafenib: 0.95
- lactate per cell with vemurafenib: 0.96

KLF6
- cell gain with vemurafenib: 0.09
- lactate per cell with vemurafenib: 1.38

PDP1
- cell gain with vemurafenib: 0.69
- lactate per cell with vemurafenib: 0.38

Main list, repeating the preview:
NR5A2
- cell gain with vemurafenib: 0.3
- lactate per cell with vemurafenib: 1.25

POPDC2
- cell gain with vemurafenib: 0.89
- lactate per cell with vemurafenib: 0.82

MRPL40
- cell gain with vemurafenib: 0.95
- lactate per cell with vemurafenib: 0.96

KLF6
- cell gain with vemurafenib: 0.09
- lactate per cell with vemurafenib: 1.38

PDP1
- cell gain with vemurafenib: 0.69
- lactate per cell with vemurafenib: 0.38

AP3M2
- cell gain with vemurafenib: -0.04
- lactate per cell with vemurafenib: 2.37

RIMS1
- cell gain with vemurafenib: 0.86
- lactate per cell with vemurafenib: 0.82

SLCO2A1
- cell gain with vemurafenib: 0.38
- lactate per cell with vemurafenib: 0.78

SEPTIN12
- cell gain with vemurafenib: 0.74
- lactate per cell with vemurafenib: 0.9

TMX4
- cell gain with vemurafenib: 1.01
- lactate per cell with vemurafenib: 0.7

SYK
- cell gain with vemurafenib: 0
- lactate per cell with vemurafenib: 2.41

AHR
- cell gain with vemurafenib: 0.43
- lactate per cell with vemurafenib: 0.97

IL36A
- cell gain with vemurafenib: 0.6
- lactate per cell with vemurafenib: 0.73

MACROD1
- cell gain with vemurafenib: 0.74
- lactate per cell with vemurafenib: 1.56

AP1AR
- cell gain with vemurafenib: 0.56
- lactate per cell with vemurafenib: 1.31

ALOX12B
- cell gain with vemurafenib: 1.06
- lactate per cell with vemurafenib: 1.23

ALKBH8
- cell gain with vemurafenib: 0.85
- lactate per cell with vemurafenib: 0.64

CD247
- cell gain with vemurafenib: 0.25
- lactate per cell with vemurafenib: 1.33

MGME1
- cell gain with vemurafenib: 0.37
- lactate per cell with vemurafenib: 1.35

AQP3
- cell gain with vemurafenib: 0.27
- lactate per cell with vemurafenib: 0.92

FBXL16
- cell gain with vemurafenib: 0.85
- lactate per cell with vemurafenib: 0.91

C1orf74
- cell gain with vemurafenib: 0.44
- lactate per cell with vemurafenib: 1.12

PTGER2
- cell gain with vemurafenib: 0.34
- lactate per cell with vemurafenib: 1.16

FNDC7
- cell gain with vemurafenib: 1.08
- lactate per cell with vemurafenib: 0.62

C1orf159
- cell gain with vemurafenib: 0.6
- lactate per cell with vemurafenib: 0.22

TMEM167B
- cell gain with vemurafenib: 0.29
- lactate per cell with vemurafenib: 1.01

DEFB107B
- cell gain with vemurafenib: 0.89
- lactate per cell with vemurafenib: 0.66

GOSR1
- cell gain with vemurafenib: 0.63 (active)
- lactate per cell with vemurafenib: 0.61

GPR132
- cell gain with vemurafenib: 0.19
- lactate per cell with vemurafenib: 2.22

CEP162
- cell gain with vemurafenib: 1.04
- lactate per cell with vemurafenib: 0.92

OBP2B
- cell gain with vemurafenib: 0.83
- lactate per cell with vemurafenib: 1.15

HOATZ
- cell gain with vemurafenib: 0.66 (active)
- lactate per cell with vemurafenib: 0.42

SCAF11
- cell gain with vemurafenib: 0.08
- lactate per cell with vemurafenib: 2.63

ATP5ME
- cell gain with vemurafenib: 0.65
- lactate per cell with vemurafenib: 1.48

COTL1
- cell gain with vemurafenib: 0.04
- lactate per cell with vemurafenib: 2.37

DDX19A
- cell gain with vemurafenib: 0.66
- lactate per cell with vemurafenib: 0.89

HOXA3
- cell gain with vemurafenib: 0.92
- lactate per cell with vemurafenib: 0.74

ZZZ3
- cell gain with vemurafenib: 0.47
- lactate per cell with vemurafenib: -0.06

NABP1
- cell gain with vemurafenib: 0.17
- lactate per cell with vemurafenib: 2.06

DUSP7
- cell gain with vemurafenib: 0.86
- lactate per cell with vemurafenib: 0.82
